Measurements: PMC7564345

What was measured:
Assay in all cases: two-hybrid; bait in pGBKT7 (binding domain), prey in pGADT7 (activation domain), yeast strain Y2H gold; growth on quadruple dropout medium (-Trp, -Leu, -His, -Ade) at 30 °C, double dropout as control of transformation
[1] = target: Mlp1104486 (Melampsora larici-populina)
[2] = target: Mlp1123281 (Melampsora larici-populina)
[3] = target: Mlp151107359 (Melampsora larici-populina)
[4] = target: Mlp3351690 (Melampsora larici-populina)
[5] = target: Mlp3353845 (Melampsora larici-populina)
[6] = target: Mlp51108708 (Melampsora larici-populina)
[7] = target: Mlp752166 (Melampsora larici-populina)
[8] = target: Mlp772983 (Melampsora larici-populina)
[9] = target: Mlp786274 (Melampsora larici-populina)

Measured: binding

B1: prey-AtPDI-11 (protein, UniProt O22263 23-361)
chain: DDVVVLTDDSFEKEVGKDKGALVEFYAPWCGHCKKLAPEYEKLGASFKKAKSVLIAKVDCDEQKSVCTKYGVSGYPTIQWFPKGSLEPQKYEGPRNAEALAEYVNKEGGTNVKLAAVPQNVVVLTPDNFDEIVLDQNKDVLVEFYAPWCGHCKSLAPTYEKVATVFKQEEGVVIANLDADAHKALGEKYGVSGFPTLKFFPKDNKAGHDYDGGRDLDDFVSFINEKSGTSRDSKGQLTSKAGIVESLDALVKELVAASEDEKKAVLSRIEEEASTLKGSTTRYGKLYLKLAKSYIEKGSDYASKETERLGRVLGKSISPVKADELTLKRNILTTFVASS
no binding: [1] | [2] | [3] | [4] | [5] | [6] | [7] | [8] | [9]

Results are given in words; binding and its absence hold for the method and conditions named.
